Source: the supplement of paper PMC12067093, “Discovery and optimisation of a covalent ligand for TRIM25 and its application to targeted protein ubiquitination” (Chemical Science, 2025)
The list shows a part of the results.

Amino acid sequences for entries named in this document (tags omitted). A change or cut given only in a name is not applied to a line headed by its entry.
UniProt P03973: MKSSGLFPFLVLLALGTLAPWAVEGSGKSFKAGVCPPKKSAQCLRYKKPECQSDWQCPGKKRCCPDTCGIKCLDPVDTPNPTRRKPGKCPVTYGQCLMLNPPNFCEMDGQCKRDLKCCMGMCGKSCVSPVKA
UniProt Q7KZF4: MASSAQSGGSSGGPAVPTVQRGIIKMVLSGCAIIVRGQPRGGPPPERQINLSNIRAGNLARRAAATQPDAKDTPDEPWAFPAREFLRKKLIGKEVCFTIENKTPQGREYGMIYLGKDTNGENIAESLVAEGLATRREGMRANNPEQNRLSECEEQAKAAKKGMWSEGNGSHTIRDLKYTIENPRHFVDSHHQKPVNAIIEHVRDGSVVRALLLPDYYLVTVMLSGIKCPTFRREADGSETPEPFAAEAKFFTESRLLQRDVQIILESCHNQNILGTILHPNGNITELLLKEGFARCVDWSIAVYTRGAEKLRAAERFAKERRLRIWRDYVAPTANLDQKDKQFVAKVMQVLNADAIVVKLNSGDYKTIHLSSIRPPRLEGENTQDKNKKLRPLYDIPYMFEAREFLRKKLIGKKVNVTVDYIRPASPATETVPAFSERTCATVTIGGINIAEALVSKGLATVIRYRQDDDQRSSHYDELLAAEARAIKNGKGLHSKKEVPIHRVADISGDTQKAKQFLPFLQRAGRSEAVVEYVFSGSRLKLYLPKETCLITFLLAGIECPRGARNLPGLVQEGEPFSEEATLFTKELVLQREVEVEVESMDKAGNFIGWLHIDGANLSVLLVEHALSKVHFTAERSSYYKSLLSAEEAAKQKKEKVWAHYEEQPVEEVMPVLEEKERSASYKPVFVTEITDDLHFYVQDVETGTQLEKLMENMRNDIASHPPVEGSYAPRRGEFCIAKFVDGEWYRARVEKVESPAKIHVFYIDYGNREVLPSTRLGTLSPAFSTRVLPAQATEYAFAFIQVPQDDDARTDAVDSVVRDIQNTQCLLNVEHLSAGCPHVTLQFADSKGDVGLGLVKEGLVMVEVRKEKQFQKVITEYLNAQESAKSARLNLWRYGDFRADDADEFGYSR
UniProt Q8N357: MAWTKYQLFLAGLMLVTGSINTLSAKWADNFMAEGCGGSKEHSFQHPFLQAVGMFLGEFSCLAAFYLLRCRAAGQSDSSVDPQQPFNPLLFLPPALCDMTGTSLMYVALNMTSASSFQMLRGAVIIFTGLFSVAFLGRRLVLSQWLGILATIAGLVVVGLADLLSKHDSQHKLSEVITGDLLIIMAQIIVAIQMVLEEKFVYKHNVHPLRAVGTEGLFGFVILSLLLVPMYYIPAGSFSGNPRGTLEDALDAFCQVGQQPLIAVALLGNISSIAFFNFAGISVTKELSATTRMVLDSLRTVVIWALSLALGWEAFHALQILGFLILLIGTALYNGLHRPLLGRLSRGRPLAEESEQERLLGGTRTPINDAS
UniProt Q6GMV2: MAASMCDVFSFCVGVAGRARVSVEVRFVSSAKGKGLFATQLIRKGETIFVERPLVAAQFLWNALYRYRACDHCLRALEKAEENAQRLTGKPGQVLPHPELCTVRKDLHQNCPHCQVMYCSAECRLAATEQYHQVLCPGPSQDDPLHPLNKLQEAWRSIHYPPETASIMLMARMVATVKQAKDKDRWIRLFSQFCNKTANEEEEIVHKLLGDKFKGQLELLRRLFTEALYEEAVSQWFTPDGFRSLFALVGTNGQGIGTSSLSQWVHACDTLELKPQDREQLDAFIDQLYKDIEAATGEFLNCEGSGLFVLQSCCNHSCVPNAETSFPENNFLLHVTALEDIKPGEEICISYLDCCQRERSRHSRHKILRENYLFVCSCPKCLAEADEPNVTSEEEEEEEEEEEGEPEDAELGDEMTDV
UniProt Q9H0W8: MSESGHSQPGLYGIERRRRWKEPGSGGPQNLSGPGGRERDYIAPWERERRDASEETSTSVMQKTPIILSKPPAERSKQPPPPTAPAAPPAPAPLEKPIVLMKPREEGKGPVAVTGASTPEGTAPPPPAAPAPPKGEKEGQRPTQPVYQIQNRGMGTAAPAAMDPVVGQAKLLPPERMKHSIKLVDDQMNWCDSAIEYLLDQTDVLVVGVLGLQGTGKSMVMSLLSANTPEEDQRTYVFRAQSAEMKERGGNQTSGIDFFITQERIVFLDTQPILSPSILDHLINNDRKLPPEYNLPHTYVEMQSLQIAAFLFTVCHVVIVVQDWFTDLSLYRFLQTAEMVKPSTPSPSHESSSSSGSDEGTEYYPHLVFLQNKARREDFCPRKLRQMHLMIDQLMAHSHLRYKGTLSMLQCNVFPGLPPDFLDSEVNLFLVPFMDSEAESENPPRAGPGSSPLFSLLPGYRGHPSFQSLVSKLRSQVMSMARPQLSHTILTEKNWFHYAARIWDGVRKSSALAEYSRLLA
UniProt Q8IY18: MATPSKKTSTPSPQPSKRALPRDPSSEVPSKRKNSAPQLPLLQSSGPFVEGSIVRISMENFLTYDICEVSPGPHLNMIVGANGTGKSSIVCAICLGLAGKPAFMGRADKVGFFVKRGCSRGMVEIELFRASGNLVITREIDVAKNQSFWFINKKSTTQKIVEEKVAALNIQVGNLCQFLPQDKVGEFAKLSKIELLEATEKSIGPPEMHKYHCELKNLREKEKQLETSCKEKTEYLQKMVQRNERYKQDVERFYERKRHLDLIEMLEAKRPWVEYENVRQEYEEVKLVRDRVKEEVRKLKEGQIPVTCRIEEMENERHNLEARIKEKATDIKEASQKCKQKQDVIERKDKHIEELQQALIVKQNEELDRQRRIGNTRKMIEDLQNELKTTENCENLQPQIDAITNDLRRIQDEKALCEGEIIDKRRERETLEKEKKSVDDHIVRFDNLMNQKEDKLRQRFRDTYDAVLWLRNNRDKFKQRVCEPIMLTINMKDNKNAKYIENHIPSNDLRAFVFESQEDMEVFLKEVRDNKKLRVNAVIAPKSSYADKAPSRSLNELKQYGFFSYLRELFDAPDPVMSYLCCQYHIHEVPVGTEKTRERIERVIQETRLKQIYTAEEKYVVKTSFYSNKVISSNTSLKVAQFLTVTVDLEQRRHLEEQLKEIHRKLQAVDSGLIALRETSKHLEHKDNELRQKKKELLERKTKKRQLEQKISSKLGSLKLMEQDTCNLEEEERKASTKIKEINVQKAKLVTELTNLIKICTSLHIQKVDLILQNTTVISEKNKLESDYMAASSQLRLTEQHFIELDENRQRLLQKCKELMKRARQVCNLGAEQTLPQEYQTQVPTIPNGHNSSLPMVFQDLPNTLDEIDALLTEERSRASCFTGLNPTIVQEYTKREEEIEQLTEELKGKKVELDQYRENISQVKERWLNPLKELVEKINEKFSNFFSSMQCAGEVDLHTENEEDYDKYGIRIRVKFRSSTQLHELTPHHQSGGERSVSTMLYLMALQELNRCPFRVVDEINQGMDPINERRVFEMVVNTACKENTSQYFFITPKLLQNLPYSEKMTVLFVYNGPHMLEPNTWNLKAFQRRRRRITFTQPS
UniProt Q14BN4: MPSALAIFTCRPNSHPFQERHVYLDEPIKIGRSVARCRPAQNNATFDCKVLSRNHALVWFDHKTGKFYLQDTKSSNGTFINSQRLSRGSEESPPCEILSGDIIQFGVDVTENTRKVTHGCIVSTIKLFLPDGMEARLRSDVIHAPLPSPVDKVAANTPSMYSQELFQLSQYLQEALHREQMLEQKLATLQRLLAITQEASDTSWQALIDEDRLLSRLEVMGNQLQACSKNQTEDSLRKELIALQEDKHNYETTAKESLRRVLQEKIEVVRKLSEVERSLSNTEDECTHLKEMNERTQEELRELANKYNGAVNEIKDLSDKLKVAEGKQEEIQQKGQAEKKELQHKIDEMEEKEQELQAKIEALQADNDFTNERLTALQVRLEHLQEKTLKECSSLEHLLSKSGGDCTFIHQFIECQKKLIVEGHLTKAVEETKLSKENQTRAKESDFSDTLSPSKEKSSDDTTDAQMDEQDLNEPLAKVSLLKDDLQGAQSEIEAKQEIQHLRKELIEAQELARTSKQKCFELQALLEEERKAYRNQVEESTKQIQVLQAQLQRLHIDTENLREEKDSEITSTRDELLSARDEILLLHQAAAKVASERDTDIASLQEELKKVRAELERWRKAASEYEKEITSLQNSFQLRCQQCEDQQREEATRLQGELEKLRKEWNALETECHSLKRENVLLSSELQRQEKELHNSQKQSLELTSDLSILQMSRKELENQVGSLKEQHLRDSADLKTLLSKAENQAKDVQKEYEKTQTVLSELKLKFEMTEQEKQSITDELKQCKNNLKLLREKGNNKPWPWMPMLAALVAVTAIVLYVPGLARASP
UniProt Q5VYV7: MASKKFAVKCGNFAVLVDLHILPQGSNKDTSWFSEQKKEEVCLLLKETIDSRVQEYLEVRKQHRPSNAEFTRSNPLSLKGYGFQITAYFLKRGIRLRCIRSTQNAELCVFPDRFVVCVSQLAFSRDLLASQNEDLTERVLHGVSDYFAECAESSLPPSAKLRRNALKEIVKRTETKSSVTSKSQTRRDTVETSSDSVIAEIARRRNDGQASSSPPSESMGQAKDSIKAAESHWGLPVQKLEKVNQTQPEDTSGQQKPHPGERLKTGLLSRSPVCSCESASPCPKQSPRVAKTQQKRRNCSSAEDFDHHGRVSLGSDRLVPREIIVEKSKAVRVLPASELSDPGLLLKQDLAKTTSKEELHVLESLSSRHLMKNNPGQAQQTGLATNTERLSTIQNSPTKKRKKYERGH
UniProt Q7Z7L1: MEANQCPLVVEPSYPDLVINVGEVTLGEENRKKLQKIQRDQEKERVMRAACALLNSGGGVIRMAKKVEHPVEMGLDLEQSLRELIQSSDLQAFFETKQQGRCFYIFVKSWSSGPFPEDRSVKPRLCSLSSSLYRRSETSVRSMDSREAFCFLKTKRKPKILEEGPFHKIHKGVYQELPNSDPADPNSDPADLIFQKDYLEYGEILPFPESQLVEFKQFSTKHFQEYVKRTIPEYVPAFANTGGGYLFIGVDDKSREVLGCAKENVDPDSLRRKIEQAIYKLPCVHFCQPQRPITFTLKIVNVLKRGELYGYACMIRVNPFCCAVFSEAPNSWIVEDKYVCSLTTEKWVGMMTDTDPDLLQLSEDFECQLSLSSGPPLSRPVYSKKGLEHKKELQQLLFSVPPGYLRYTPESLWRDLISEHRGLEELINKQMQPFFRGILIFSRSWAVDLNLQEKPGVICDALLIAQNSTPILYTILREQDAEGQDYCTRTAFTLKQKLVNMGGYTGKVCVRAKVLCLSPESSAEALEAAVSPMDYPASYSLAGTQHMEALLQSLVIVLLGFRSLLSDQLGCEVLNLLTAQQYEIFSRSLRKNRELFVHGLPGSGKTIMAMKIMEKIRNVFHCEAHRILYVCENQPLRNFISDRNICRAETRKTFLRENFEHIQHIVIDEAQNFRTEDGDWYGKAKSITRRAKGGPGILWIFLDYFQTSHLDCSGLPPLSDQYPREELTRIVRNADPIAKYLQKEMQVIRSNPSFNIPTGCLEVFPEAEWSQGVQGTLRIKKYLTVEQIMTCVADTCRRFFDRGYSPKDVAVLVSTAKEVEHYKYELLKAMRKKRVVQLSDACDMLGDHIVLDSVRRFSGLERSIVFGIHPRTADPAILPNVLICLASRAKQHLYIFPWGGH

Compound: CC1Cc2ccccc2N1C(=O)C1CCCN(C1)C(=O)CCl (mixture of isomers) [TRIM25 ligand 11 (diastereomer mixture)]
Test: probe-labelled cysteine peptide fold change vs DMSO (competition) (log2 fold change); higher = less target engagement (more negative = stronger competition)
Conditions: THP-1, incubation time: 4 h
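Also: competitive chemoproteomic profiling in live THP-1 cells with an iodoacetamide desthiobiotin (IA-DTB) probe, comparing probe-labelled peptide intensities in compound-treated cells against DMSO-treated controls.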

SLPI_P03973_51+57_YKKPECQSDWQCPGK (UniProt P03973)
probe-labelled cysteine peptide fold change (10 µM): -0.301
probe-labelled cysteine peptide fold change (50 µM): -0.883

SND1_Q7KZF4_440_TCATVTIGGINIAEALVSK (UniProt Q7KZF4)
probe-labelled cysteine peptide fold change (10 µM): -0.0184
probe-labelled cysteine peptide fold change (50 µM): -0.0325

SLC35F6_Q8N357_36_WADNFMAEGCGGSK (UniProt Q8N357)
probe-labelled cysteine peptide fold change (10 µM): -0.11
probe-labelled cysteine peptide fold change (50 µM): -0.189

SMYD5_Q6GMV2_378_ENYLFVCSCPK (UniProt Q6GMV2)
probe-labelled cysteine peptide fold change (10 µM): 0.0657
probe-labelled cysteine peptide fold change (50 µM): -0.119

SMG9_Q9H0W8_380_EDFCPR (UniProt Q9H0W8)
probe-labelled cysteine peptide fold change (10 µM): -0.111
probe-labelled cysteine peptide fold change (50 µM): -0.454

SMC5_Q8IY18_582_ELFDAPDPVMSYLCCQYHIHEVPVGTEK (UniProt Q8IY18)
probe-labelled cysteine peptide fold change (10 µM): 0.00685
probe-labelled cysteine peptide fold change (50 µM): 0.367

SNRNP200_O75643_428_CQLPDGSFR (UniProt O75643)
probe-labelled cysteine peptide fold change (10 µM): -0.074
probe-labelled cysteine peptide fold change (50 µM): -0.195

SLMAP_Q14BN4_673_EWNALETECHSLK (UniProt Q14BN4)
probe-labelled cysteine peptide fold change (10 µM): 0.25
probe-labelled cysteine peptide fold change (50 µM): 0.175

SLX4IP_Q5VYV7_299_NCSSAEDFDHHGR (UniProt Q5VYV7)
probe-labelled cysteine peptide fold change (10 µM): 0.172
probe-labelled cysteine peptide fold change (50 µM): -0.0972

SLFN11_Q7Z7L1_126_LCSLSSSLYR (UniProt Q7Z7L1)
probe-labelled cysteine peptide fold change (10 µM): -0.127
probe-labelled cysteine peptide fold change (50 µM): -0.0677
